PubChem BioAssay AID493246 | Drosophila RNAi Screening Center, 2011
Test: 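Identify essential fly genes by loss of cell viability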 (primary screen). Cells: Drosophila Kc and S2R+ cells. Knock-down reagent: long dsRNA against Drosophila genes. Measurement: 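Cell number per well after knock-down, printed as raw plate values; calls were based on per-plate z-scores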. Direction: Kc cell number and S2R+ cell number: higher = more cells remaining. Active means: 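Counted as a hit if cell number falls by a z-score of at least 3 within its plate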.
The screen tested about 21,000 reagents; below is an unselected part of those with a known target gene and a result. In the full data, 429 (2%) were called active. 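Values are raw and not normalised between plates; calls rest on per-plate z-scores that were not deposited.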 A number with no mark means an inactive call. Reagents against one gene are numbered here. The record does not give: the amount of reagent, the time to read-out.

Target gene | dsRNA no. | Kc cell number, rep 1 | Kc cell number, rep 2 | S2R+ cell number, rep 1 | S2R+ cell number, rep 2
br | 1 | 1.47e6 | 1.65e6 | 1.10e6 | 1.15e6
br | 2 | 1.46e6 | 1.41e6 | 9.98e5 | 1.07e6
br | 3 | 1.54e6 | 1.43e6 | 7.57e5 | 8.42e5
br | 4 | 1.55e6 | 1.43e6 | 8.01e5 | 8.22e5
robl37BC | 1 | 1.78e6 | 1.84e6 | 1.26e6 | 2.08e5
esc | 1 | 1.23e6 | 1.28e6 | 1.15e6 | 1.23e6
CG6073 | 1 | 1.64e6 | 1.71e6 | 1.13e6 | 1.28e6
nvy | 1 | 1.58e6 | 1.64e6 | 1.06e6 | 1.17e6
Kpc2 | 1 | 1.57e6 | 1.58e6 | 1.18e6 | 1.23e6
mh | 1 | 1.45e6 | 1.47e6 | 9.45e5 | 1.02e6
Or22c | 1 | 1.51e6 | 1.57e6 | 9.99e5 | 1.12e6
upd3 | 1 | 1.53e6 | 1.55e6 | 1.11e6 | 1.20e6
upd3 | 2 | 1.49e6 | 1.52e6 | 1.11e6 | 1.16e6
cnk | 1 | 1.45e6 | 1.50e6 | 1.16e6 | 1.30e6
Snx27 | 1 | 1.57e6 | 1.51e6 | 1.02e6 | 1.16e6
Snx27 | 2 | 1.45e6 | 1.44e6 | 9.75e5 | 1.07e6
Snx27 | 3 | 1.53e6 | 1.50e6 | 1.03e6 | 1.14e6
MCU | 1 | 1.49e6 | 1.32e6 | 1.19e6 | 1.20e6
CG2267 | 1 | 1.42e6 | 1.40e6 | 1.01e6 | 1.09e6
CG13359 | 1 | 1.48e6 | 1.43e6 | 1.00e6 | 1.08e6
knon | 1 | 1.53e6 | 1.56e6 | 1.16e6 | 1.28e6
CG31029 | 1 | 1.43e6 | 1.50e6 | 1.02e6 | 1.11e6
ko | 1 | 1.39e6 | 1.55e6 | 1.30e6 | 1.36e6
Prps | 1 | 1.18e6 | 1.27e6 | 8.92e5 | 1.04e6
Prps | 2 | 1.24e6 | 1.26e6 | 8.83e5 | 9.94e5
Prps | 3 | 1.24e6 | 1.23e6 | 9.55e5 | 1.04e6
Ypel | 1 | 6.67e5 | – | 1.02e6 | –
ken | 1 | 7.67e5 (active) | 8.64e5 | 4.54e5 | 5.51e5
spz4 | 1 | 1.62e6 | 1.66e6 | 1.14e6 | 1.28e6
Alg-2 | 1 | 1.54e6 | 1.17e6 | 1.02e6 | 1.19e6
angel | 1 | 1.44e6 | 1.49e6 | 1.23e6 | 1.30e6
Or23a | 1 | 1.51e6 | 1.49e6 | 1.10e6 | 1.24e6
CG12849 | 1 | 1.73e6 | 1.71e6 | 1.34e6 | 1.31e6
CG32694 | 1 | 1.69e6 | 1.59e6 | 1.05e6 | 1.16e6
CG32694 | 2 | 1.73e6 | 1.86e6 | 1.09e6 | 1.30e6
Hsp26 | 1 | 1.32e6 | 1.37e6 | 1.24e6 | 1.25e6
Eh | 1 | 1.19e6 | 1.23e6 | 1.16e6 | 1.30e6
Ilp2 | 1 | 1.25e6 | 1.35e6 | 1.41e6 | 1.09e6
AstA | 1 | 1.51e6 | 1.74e6 | 1.08e6 | 1.14e6
Cyp4g15 | 1 | 1.54e6 | 1.55e6 | 1.00e6 | 1.11e6
Taldo | 1 | 1.24e6 | 1.32e6 | 1.07e6 | 1.04e6
CG11672 | 1 | 1.70e6 | 1.92e6 | 1.24e6 | 1.39e6
CG3611 | 1 | 1.60e6 | 1.68e6 | 1.39e6 | 1.52e6
CG10175 | 1 | 1.01e6 | 1.21e6 | 1.04e6 | 1.06e6
CG10175 | 2 | 1.42e6 | 1.38e6 | 1.08e6 | 1.13e6
CG30495 | 1 | 1.67e6 | 1.72e6 | 1.39e6 | 1.59e6
Rab39 | 1 | 1.52e6 | 1.46e6 | 1.08e6 | 1.05e6
mnb | 1 | 1.47e6 | 1.44e6 | 7.39e5 | 8.11e5
mnb | 2 | 1.51e6 | 1.55e6 | 1.00e6 | 1.04e6
Cdk1 | 1 | 1.23e6 | 1.42e6 | 8.47e5 | 9.05e5
Boh1 | 1 | 5.90e5 | – | 8.67e5 | –
CG33521 | 1 | 1.28e6 | 1.67e6 | 1.08e6 | 1.20e6
CG33521 | 2 | 1.51e6 | 1.52e6 | 1.06e6 | 1.22e6
CG3085 | 1 | 1.33e6 | 1.38e6 | 1.14e6 | 1.17e6
Cp7Fb | 1 | 1.42e6 | 1.43e6 | 1.08e6 | 1.16e6
CG33257 | 1 | 1.26e6 | 1.51e6 | 1.25e6 | 1.38e6
fzr2 | 1 | 1.36e6 | 1.48e6 | 1.09e6 | 1.09e6
qua | 1 | 1.55e6 | 1.64e6 | 1.22e6 | 1.40e6
5PtaseI | 1 | 1.68e6 | 1.71e6 | 1.37e6 | 1.41e6

3 consecutive records already listed, for reference:
Target gene | dsRNA no. | Kc cell number, rep 1 | Kc cell number, rep 2 | S2R+ cell number, rep 1 | S2R+ cell number, rep 2
Eh | 1 | 1.19e6 | 1.23e6 | 1.16e6 | 1.30e6
Ilp2 | 1 | 1.25e6 | 1.35e6 | 1.41e6 | 1.09e6
AstA | 1 | 1.51e6 | 1.74e6 | 1.08e6 | 1.14e6
